Reference: US4460503A (priority 1983, dated 1984)

Experiment: general procedure: solution-phase peptide synthesis; dicyclohexylcarbodiimide / N-hydroxysuccinimide; succinimidyl esters

Row | Substance | step yield (coupling step) | step yield (late stage modification step) | also measured
1 | Z-Ser(Bu^t)-Glu(OBu^t)-Ser(Bu^t)-Glu(OBu^t)-Gly-OMe | 92% |  | 
2 | BOC-Lys(Z)-Asn-Gly-Ser-Gln-Met-Arg(Tos)-Leu)OBzl | 75% |  | 
3 | Z-Ser(Bu^t)-Glu(OBu^t)-Ser(Bu^t)-Glu(OBu^t)-Gly-OH |  | 85% | 
4 | PEPTIDE1{D.G.G.S.E.S.E.G}$$$$V2.0 |  | 63% | step yield (late stage modification step, trifluoroacetate): 99%
5 | Z-Glu(OBu^t)-Ser(Bu^t)-Glu(OBu^t)-Gly-OMe | 92% |  | 
6 | H-Ser(Bu^t)-Glu(OBu^t)-Ser(Bu^t)-Glu(OBu^t)-Gly-OH hydrochloride |  |  | step yield (late stage modification step, hydrochloride): 96%
7 | DGGSESEGKNGSQMRL |  | 6.5% | difficulty met (late stage modification step): showed this preparation to be a complex mixture of products
8 | Boc-D(OtBu)GGS(tBu)E(OtBu)S(tBu)E(OtBu)G-OH | 82% |  | 

HELM strings list residues between dots; [ac] is acetyl, [am] amide, other brackets name non-standard units. Where no end group is shown, it is not given here. The star is where a group is joined. Boc = CC(C)(C)OC(=O)*; OtBu = CC(C)(C)O*; tBu = CC(C)(C)*
